Drawing on paper PMC9220252, this text covers binding for three substances.

The chains behind the UniProt entries cited, without tags or fusion partners.
UniProt Q16665: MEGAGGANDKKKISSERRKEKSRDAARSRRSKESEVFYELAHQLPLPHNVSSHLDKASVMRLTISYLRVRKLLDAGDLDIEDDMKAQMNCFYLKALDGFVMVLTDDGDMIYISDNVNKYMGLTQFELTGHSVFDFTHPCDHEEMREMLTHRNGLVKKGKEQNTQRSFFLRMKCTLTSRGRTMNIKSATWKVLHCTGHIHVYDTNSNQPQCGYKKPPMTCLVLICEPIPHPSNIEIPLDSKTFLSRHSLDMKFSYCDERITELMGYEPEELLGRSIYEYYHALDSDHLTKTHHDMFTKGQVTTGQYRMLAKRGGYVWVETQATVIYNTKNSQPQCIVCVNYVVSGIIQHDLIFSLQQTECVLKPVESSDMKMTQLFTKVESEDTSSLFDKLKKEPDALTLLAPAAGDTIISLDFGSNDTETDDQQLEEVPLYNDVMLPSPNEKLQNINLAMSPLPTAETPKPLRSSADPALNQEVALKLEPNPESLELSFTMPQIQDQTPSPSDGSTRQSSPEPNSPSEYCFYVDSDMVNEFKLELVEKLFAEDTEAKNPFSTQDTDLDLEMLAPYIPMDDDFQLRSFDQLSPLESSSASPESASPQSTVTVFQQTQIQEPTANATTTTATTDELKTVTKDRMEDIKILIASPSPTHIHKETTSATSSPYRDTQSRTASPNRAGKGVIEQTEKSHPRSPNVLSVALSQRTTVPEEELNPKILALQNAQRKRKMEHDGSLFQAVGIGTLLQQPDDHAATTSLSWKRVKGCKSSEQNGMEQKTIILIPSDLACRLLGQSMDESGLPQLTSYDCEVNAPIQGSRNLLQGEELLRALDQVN
UniProt Q09472: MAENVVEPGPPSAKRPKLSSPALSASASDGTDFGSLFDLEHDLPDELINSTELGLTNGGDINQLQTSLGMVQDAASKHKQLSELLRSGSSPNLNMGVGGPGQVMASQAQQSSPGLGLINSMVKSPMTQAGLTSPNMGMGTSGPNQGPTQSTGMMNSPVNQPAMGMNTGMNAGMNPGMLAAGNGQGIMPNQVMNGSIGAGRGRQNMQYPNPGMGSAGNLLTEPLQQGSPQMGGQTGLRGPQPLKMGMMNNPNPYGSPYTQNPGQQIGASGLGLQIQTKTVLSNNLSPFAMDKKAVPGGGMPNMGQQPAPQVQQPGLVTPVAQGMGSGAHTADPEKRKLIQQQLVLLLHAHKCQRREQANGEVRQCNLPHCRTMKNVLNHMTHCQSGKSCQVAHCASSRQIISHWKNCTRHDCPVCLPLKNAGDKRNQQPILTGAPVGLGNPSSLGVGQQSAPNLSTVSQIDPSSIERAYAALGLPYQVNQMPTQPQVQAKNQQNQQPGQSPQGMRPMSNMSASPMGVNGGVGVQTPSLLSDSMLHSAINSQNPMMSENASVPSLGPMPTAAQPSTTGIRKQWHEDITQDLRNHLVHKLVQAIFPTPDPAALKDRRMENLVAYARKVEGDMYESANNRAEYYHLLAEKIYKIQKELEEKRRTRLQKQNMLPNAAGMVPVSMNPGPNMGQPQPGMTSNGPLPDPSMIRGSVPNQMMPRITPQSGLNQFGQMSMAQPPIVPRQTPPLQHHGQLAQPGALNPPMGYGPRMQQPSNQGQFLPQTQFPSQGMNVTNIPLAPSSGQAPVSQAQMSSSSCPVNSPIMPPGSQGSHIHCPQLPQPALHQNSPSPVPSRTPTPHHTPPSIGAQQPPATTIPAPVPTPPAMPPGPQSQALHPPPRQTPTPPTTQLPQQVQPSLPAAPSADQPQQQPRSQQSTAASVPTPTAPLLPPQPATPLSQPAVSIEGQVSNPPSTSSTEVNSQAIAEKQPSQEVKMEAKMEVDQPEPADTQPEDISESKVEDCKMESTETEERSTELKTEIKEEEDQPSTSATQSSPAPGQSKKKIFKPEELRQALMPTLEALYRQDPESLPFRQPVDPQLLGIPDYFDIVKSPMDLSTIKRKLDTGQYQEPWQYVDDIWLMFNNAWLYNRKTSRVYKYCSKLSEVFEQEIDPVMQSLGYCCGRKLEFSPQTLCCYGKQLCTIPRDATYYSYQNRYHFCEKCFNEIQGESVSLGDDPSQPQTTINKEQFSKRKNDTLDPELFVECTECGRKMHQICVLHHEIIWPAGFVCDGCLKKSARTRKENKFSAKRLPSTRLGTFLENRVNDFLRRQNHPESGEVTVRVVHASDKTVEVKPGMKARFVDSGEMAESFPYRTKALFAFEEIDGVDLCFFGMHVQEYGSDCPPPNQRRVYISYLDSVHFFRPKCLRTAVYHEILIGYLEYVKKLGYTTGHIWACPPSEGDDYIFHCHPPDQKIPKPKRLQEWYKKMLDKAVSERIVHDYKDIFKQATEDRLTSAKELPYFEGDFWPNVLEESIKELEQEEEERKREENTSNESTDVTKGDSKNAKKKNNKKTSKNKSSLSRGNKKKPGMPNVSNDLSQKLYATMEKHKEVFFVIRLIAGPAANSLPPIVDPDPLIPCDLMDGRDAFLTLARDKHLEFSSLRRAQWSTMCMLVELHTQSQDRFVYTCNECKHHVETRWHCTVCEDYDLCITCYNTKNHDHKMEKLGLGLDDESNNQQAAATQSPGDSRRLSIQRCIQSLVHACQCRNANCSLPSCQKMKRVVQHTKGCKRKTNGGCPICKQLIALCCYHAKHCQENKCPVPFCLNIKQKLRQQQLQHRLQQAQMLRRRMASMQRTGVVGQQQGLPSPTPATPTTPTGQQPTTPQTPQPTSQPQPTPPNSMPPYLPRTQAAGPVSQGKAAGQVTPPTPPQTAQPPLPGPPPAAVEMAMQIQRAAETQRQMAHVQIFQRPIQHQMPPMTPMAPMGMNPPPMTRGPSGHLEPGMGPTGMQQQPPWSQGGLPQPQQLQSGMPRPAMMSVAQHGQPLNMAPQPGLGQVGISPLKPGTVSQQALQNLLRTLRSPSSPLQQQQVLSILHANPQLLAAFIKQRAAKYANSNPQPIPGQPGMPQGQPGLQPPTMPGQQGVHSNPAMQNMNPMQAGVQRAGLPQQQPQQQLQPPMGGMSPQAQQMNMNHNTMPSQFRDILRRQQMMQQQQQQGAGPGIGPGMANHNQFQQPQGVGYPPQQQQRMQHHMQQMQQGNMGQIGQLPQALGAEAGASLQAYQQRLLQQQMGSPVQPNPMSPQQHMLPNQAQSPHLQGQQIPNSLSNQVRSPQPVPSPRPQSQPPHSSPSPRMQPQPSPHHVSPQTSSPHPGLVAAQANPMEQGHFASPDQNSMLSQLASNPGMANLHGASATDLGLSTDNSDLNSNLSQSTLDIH
UniProt P53396: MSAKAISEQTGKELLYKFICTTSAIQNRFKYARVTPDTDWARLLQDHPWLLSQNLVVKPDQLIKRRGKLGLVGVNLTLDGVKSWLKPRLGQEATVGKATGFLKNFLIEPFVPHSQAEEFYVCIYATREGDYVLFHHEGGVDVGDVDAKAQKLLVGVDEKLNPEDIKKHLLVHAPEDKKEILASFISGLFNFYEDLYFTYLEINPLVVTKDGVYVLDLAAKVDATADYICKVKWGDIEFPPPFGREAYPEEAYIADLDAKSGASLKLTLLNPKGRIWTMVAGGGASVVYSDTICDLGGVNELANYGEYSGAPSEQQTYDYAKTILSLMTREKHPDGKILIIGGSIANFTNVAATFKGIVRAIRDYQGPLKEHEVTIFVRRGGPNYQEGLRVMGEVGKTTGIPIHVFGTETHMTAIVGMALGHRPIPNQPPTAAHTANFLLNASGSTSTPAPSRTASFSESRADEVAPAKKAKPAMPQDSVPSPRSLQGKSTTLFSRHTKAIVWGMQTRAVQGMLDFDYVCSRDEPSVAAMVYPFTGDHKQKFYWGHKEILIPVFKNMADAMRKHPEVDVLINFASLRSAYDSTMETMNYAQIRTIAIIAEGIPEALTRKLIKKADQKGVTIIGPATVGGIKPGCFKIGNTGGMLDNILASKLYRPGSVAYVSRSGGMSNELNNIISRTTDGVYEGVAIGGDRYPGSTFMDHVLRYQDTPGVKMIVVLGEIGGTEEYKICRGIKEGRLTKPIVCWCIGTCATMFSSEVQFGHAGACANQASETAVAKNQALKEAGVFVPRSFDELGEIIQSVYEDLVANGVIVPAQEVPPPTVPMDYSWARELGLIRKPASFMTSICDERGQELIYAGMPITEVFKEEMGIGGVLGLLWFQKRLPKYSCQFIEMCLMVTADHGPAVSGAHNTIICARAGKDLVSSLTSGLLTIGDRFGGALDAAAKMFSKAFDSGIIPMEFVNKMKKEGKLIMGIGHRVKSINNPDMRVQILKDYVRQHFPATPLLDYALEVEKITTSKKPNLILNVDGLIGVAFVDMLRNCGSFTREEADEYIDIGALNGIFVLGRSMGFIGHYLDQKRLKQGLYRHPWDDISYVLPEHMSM
UniProt P14618: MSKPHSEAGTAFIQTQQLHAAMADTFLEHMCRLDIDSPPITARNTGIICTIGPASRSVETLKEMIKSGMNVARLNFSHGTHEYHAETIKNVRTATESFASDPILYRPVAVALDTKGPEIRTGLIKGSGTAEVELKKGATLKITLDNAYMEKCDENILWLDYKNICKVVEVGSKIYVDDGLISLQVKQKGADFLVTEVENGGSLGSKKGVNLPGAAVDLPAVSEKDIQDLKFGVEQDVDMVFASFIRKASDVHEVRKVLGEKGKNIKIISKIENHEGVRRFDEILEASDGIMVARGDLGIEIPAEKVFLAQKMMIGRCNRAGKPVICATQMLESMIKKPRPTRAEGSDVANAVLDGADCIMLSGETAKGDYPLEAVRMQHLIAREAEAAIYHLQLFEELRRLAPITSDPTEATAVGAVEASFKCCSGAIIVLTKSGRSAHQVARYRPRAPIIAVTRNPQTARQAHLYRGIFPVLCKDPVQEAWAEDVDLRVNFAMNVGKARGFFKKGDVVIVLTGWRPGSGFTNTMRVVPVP

Where a chain is given by its changes, count along the chain named. No constants are given. Whether binding was seen depends on the method and setting. Binding seen in cells or lysates may run through a third protein. Some entries that bind do so weakly or less than the wild type. For part of these data: Sequences can lack the tags named with a protein.

Assay [1] concerns the target T1, p-Ser293 PDHA1 (p-PDHA1), HepG2 cells (human (endogenous in HepG2)) (UniProt P08559).
T1 sequence (chain, phosphoserine at Ser293): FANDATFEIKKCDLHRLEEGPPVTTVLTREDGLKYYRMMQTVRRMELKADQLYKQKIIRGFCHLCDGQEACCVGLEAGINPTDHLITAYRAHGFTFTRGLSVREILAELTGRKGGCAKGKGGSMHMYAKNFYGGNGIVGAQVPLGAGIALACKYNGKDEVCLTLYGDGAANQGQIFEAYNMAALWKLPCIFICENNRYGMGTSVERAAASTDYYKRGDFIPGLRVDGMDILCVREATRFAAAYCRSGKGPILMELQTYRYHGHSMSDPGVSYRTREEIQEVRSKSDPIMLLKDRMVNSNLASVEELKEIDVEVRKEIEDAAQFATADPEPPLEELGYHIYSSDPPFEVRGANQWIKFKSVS
In words: co-IP; endogenous proteins immunoprecipitated with specific antibody and protein A/G beads from lysates of HepG2 cells stimulated with insulin (100 nM); SDS-PAGE and Western blotting.

For assay [2], the target named is HIF-1α, HepG2 cells (human (endogenous in HepG2)) (UniProt Q16665). Described as above.
Assay [3] concerns the target p300 histone acetyltransferase (HAT), HepG2 cells (human (endogenous in HepG2)) (UniProt Q09472). The assay is described as above.
The target in assay [4] is T2, GST-PDHA1 S293D (UniProt P08559).
T2 sequence: T1 sequence (chain, phosphoserine at Ser293) with S264D
Nature of the assay: pull-down; purified recombinant GST-PDHA1 beads incubated with lysates of HepG2 cells treated with insulin 100 nM for 48 h; bound PKM2 by immunoblotting; only the target purified.

The target of assay [5] is T2, GST-PDHA1 S293D. Nature of the assay: condition: only lysates of control HepG2 cells not stimulated with insulin; pull-down; purified recombinant GST-PDHA1 beads incubated with lysates of control HepG2 cells (no insulin); bound PKM2 by immunoblotting; only the target purified.

“ATP citrate lyase (ACL), HepG2 cells (from UniProt P53396 1-1101)”: the binding entry in assay [1] is “binds”.

With “Pyruvate kinase M2 (PKM2), HepG2 cells (from UniProt P14618 1-531)”, the binding entry in assay [2] is “binds”; in assay [3], “binds”; in assay [4] it was “binds”; in assay [5], “no binding”.

On to “p300 histone acetyltransferase (HAT), HepG2 cells (from UniProt Q09472 1-2414)”, for which the binding result in assay [1] is “binds”.
